Source: patent US7157457B2, “Compounds useful in the treatment of inflammatory diseases” (Glaxo Group Limited, priority 2000, dated 2007)
Some entries share one result that the patent states for a list of compounds.

What follows are compounds tested against T1, CCR-3 (Homo sapiens, UniProt P51677) (assay: CCR-3 competition binding SPA ([125I]eotaxin)). Conditions: inhibition of [125I]eotaxin binding to membranes of K562 cells stably expressing CCR-3; mean of at least two experiments.
T1 sequence (P51677 1-355): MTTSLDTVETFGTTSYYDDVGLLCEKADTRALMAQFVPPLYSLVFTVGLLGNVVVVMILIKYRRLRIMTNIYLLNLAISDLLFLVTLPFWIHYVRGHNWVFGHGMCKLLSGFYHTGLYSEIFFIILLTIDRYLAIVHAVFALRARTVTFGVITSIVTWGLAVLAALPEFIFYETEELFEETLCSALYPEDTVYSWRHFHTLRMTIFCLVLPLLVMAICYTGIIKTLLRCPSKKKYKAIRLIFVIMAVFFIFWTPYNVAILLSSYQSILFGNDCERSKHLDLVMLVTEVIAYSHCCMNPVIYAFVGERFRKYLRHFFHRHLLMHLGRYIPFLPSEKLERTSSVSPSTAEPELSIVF
Parameters: expressed in transfected cells
Procedure: A CCR-3 competition binding SPA (scintillation proximity assay) was used to assess the affinity of novel compounds for CCR-3. Membranes prepared from K562 cells stably expressing CCR-3 (2.5 μg/well) were mixed with 0.25 mg/well wheat-germ agglutinin SPA beads (Amersham) and incubated in binding buffer (HEPES 50 mM, CaCl2 1 mM, MgCl2 5 mM, 0.5% BSA) at 4° C. for 1.5 hr. Following incubation, 20 pM of [^125I] eotaxin (Amersham) and increasing concentrations of compound (1 pM to 30 μM) were added and incubated in a 96 well plate for 2 hr at 22° C. then counted on a Microbeta plate counter. The total assay volume was 100 μl. Competition binding data were analysed by fitting the data with a four parameter logistic equation. Data are presented as the mean pIC50 values (negative logarithm of the concentration of compound which inhibits [^125I]eotaxin binding by 50%) from at least two experiments.

CCR-3 Binding Assay (pIC50), greater than 5.0:
CN(C)c1ccc(NC(=O)NCC2CN(Cc3ccc(Cl)c(Cl)c3)CCO2)cc1 (stereo not drawn) [Example 36, N-{[4-(3,4-Dichlorobenzyl)morpholin-2-yl]methyl}-N′-[4-(dimethylamino)phenyl]urea]
C#CCNC(=O)NC[C@H]1CN(Cc2cccc(Cl)c2Cl)CCO1 [Example 125, N-{[(2S)-4-(2,3-dichlorobenzyl)morpholin-2-yl]methyl}-N′-prop-2-ynylurea]
O=C(NCc1cc(Cl)cc(Cl)c1)NCC1CN(Cc2ccc(Cl)c(Cl)c2)CCO1 (stereo not drawn) [Example 73, N-(3,5-dichlorobenzyl)-N′-{[4-(3,4-dichlorobenzyl)morpholin-2-yl]methyl}urea]
O=C(NCCS(=O)(=O)N1CCCC1)NCC1CN(Cc2ccc(Cl)c(Cl)c2)CCO1 (stereo not drawn) [Example 103, N-{[4-(3,4-dichlorobenzyl)morpholin-2-yl]methyl}-N′-[2-(pyrrolidin-1-ylsulfonyl)ethyl]urea]
COc1cccc(CNC(=O)NCC2CN(Cc3ccc(Cl)c(Cl)c3)CCO2)c1 (stereo not drawn) [Example 68, N-{[4-(3,4-dichlorobenzyl)morpholin-2-yl]methyl}-N′-(3-methoxybenzyl)urea]
C=CCNC(=O)NCC1CN(Cc2ccc(Cl)c(Cl)c2)CCO1 (stereo not drawn) [Example 10, N-Allyl-N′-{[4-(3,4-dichlorobenzyl)morpholin-2-yl]methyl}urea]
CS(=O)(=O)N1CCC(CNC(=O)NC[C@H]2CN(Cc3ccc(Cl)c(Cl)c3)CCO2)CC1 [Example 183, N-{[(2S)-4-(3,4-Dichlorobenzyl)morpholin-2-yl]methyl}-N′-{[1-(methylsulfonyl)piperidin-4-yl]methyl}urea]
O=C(NCc1ccc(S(=O)(=O)NC2CC2)cc1)NC[C@H]1CN(Cc2ccc(Cl)c(Cl)c2)CCO1 [Example 144, N-cyclopropyl-4-({[({[(2S)-4-(3,4-dichlorobenzyl)morpholin-2-yl]methyl}amino)carbonyl]amino}methyl)benzenesulfonamide]
O=C(NCC1CN(Cc2ccc(Cl)c(Cl)c2)CCO1)NC1CCN(C(=O)c2ccccc2)CC1 (stereo not drawn) [Example 162, N-(1-benzoylpiperidin-4-yl)-N′-{[4-(3,4-dichlorobenzyl)morpholin-2-yl]methyl}urea]
COC(=O)c1cccc(CNC(=O)NCC2CN(Cc3ccc(Cl)c(Cl)c3)CCO2)c1 (stereo not drawn) [Example 85, methyl 3-({[({[4-(3,4-dichlorobenzyl)morpholin-2-yl]methyl}amino)carbonyl]amino}methyl)benzoate]
O=C(NCC1CN(Cc2ccc(Cl)c(Cl)c2)CCO1)Nc1cc(Cl)nc(Cl)c1 (stereo not drawn) [Example 24, N-{[4-(3,4-Dichlorobenzyl)morpholin-2-yl]methyl}N′-(2,6-dichloropyridin-4-yl)urea]
O=C(NCC1CN(Cc2ccc(Cl)c(Cl)c2)CCO1)Nc1cccc2ccccc12 (stereo not drawn) [Example 31, N-{[4-(3,4-Dichlorobenzyl)morpholin-2-yl]methyl}-N′-(1-naphthyl)urea]
O=C(NCc1cccs1)NCC1CN(Cc2ccc(Cl)c(Cl)c2)CCO1 (stereo not drawn) [Example 93, N-{[4-(3,4-dichlorobenzyl)morpholin-2-yl]methyl}-N′-(thien-2-ylmethyl)urea]
O=C(NCC1CN(Cc2ccc(Cl)c(Cl)c2)CCO1)Nc1ccc(F)cc1 (stereo not drawn) [Example 17, N-{[4-(3,4-Dichlorobenzyl)morpholin-2-yl]methyl)-N′-(4-fluorophenyl)urea]
O=C(NCc1cccc(C(F)(F)F)c1)NCC1CN(Cc2ccc(Cl)c(Cl)c2)CCO1 (stereo not drawn) [Example 74, N-{[4-(3,4-dichlorobenzyl)morpholin-2-yl]methyl}-N′-[3-(trifluoromethyl)benzyl]urea]
